{
  "source": "PubChem BioAssay",
  "key": {"[1]": {"assay": "Polyglutamine toxicity reduction dose response, whole organism Drosophila SCA1 model (AID 1595)", "conditions": "at 1 µM, stronger effect = higher value"}, "PubChem AID 1597": {"assay": "PubChem AID 1597", "conditions": "Drosophila SCA1 polyglutamine model, at 1 µM, stronger effect = higher value"}},
  "note": "This is one part of the list. Potency and affinity values are given separately. Entries without a call are filed as inconclusive in the source.",
  "data": [
    {"smiles": "CN(Cc1cnc2nc(N)nc(N)c2n1)c1ccc(C(=O)N[C@@H](CCC(=O)O)C(=O)O)cc1", "values": [
      {"measurement": "suppression of toxicity", "setting": "[1]", "value": 5.71},
      {"measurement": "suppression of toxicity", "setting": "PubChem AID 1597", "value": 6.42}
    ]},
    {"smiles": "CCN(CC)CCNC(=O)c1cc(Br)c(N)cc1OC", "values": [
      {"measurement": "suppression of toxicity", "setting": "[1]", "value": 4.29},
      {"measurement": "suppression of toxicity", "setting": "PubChem AID 1597", "value": 7.86}
    ]},
    {"smiles": "Cn1cnc2c1c(=O)[nH]c(=O)n2C", "values": [
      {"measurement": "suppression of toxicity", "setting": "[1]", "value": 1.43},
      {"measurement": "suppression of toxicity", "setting": "PubChem AID 1597", "value": 1.43}
    ]},
    {"smiles": "CC(C)Oc1ccc2c(=O)cc(-c3ccccc3)oc2c1", "values": [
      {"measurement": "suppression of toxicity", "setting": "[1]", "value": 8.57},
      {"measurement": "suppression of toxicity", "setting": "PubChem AID 1597", "value": 6.43}
    ]},
    {"smiles": "Cc1cc(=O)n(-c2ccccc2)n1C", "values": [
      {"measurement": "suppression of toxicity", "setting": "[1]", "value": 2.86},
      {"measurement": "suppression of toxicity", "setting": "PubChem AID 1597", "value": 3.57}
    ]},
    {"smiles": "O=C(O)c1cc(O)ccc1O", "values": [
      {"measurement": "suppression of toxicity", "setting": "[1]", "value": 4.29},
      {"measurement": "suppression of toxicity", "setting": "PubChem AID 1597", "value": 2.15}
    ]},
    {"smiles": "COCCc1ccc(OCC(O)CNC(C)C)cc1", "note": "(configuration not stated)", "values": [
      {"measurement": "suppression of toxicity", "setting": "[1]", "value": 0},
      {"measurement": "suppression of toxicity", "setting": "PubChem AID 1597", "value": 0.715}
    ]},
    {"smiles": "CC1CC2C3CCC4=CC(=O)C=CC4(C)[C@@]3(F)C(O)CC2(C)[C@@]1(O)C(=O)CO", "note": "(some centres not stated)", "values": [
      {"measurement": "suppression of toxicity", "setting": "[1]", "value": 2.86},
      {"measurement": "suppression of toxicity", "setting": "PubChem AID 1597", "value": 11.4}
    ]},
    {"smiles": "CCC(=O)O[C@]1(C(=O)CCl)[C@@H](C)CC2C3CCC4=CC(=O)C=C[C@]4(C)[C@@]3(F)[C@@H](O)C[C@@]21C", "note": "(some centres not stated)", "values": [
      {"measurement": "suppression of toxicity", "setting": "[1]", "value": 1.43},
      {"measurement": "suppression of toxicity", "setting": "PubChem AID 1597", "value": 2.85}
    ]},
    {"smiles": "CCCCNc1cc(C(=O)O)cc(S(N)(=O)=O)c1Oc1ccccc1", "values": [
      {"measurement": "suppression of toxicity", "setting": "[1]", "value": 8.57},
      {"measurement": "suppression of toxicity", "setting": "PubChem AID 1597", "value": 12.9}
    ]},
    {"smiles": "CN(C)C(=O)C(CCN1CCC(O)(c2ccc(Cl)cc2)CC1)(c1ccccc1)c1ccccc1", "values": [
      {"measurement": "suppression of toxicity", "setting": "[1]", "value": 11.4},
      {"measurement": "suppression of toxicity", "setting": "PubChem AID 1597", "value": 17.9}
    ]},
    {"smiles": "N[C@H](Cc1ccccc1)C(=O)O", "values": [
      {"measurement": "suppression of toxicity", "setting": "[1]", "value": 7.14},
      {"measurement": "suppression of toxicity", "setting": "PubChem AID 1597", "value": 1.43}
    ]},
    {"smiles": "CCn1cc(C(=O)O)c(=O)c2cc3c(cc21)OCO3", "values": [
      {"measurement": "suppression of toxicity", "setting": "[1]", "value": 1.43},
      {"measurement": "suppression of toxicity", "setting": "PubChem AID 1597", "value": 4.29}
    ]},
    {"smiles": "CCN(CC)CCOC(=O)C(c1ccccc1)C1CCCCC1", "note": "(configuration not stated)", "values": [
      {"measurement": "suppression of toxicity", "setting": "[1]", "value": 15.7},
      {"measurement": "suppression of toxicity", "setting": "PubChem AID 1597", "value": 17.1}
    ]},
    {"smiles": "CC(=O)NS(=O)(=O)c1ccc(N)cc1", "values": [
      {"measurement": "suppression of toxicity", "setting": "[1]", "value": 1.43},
      {"measurement": "suppression of toxicity", "setting": "PubChem AID 1597", "value": 2.15}
    ]},
    {"smiles": "O=C(c1ccccc1)c1ccc2n1CCC2C(=O)O", "note": "(configuration not stated)", "values": [
      {"measurement": "suppression of toxicity", "setting": "[1]", "value": 0},
      {"measurement": "suppression of toxicity", "setting": "PubChem AID 1597", "value": 0.715}
    ]},
    {"smiles": "CN(C)CC/C=C1/c2ccccc2COc2ccccc21", "values": [
      {"measurement": "suppression of toxicity", "setting": "[1]", "value": 1.43},
      {"measurement": "suppression of toxicity", "setting": "PubChem AID 1597", "value": 6.43}
    ]},
    {"smiles": "CC(=O)Nc1nnc(S(N)(=O)=O)s1", "values": [
      {"measurement": "suppression of toxicity", "setting": "[1]", "value": 7.14},
      {"measurement": "suppression of toxicity", "setting": "PubChem AID 1597", "value": 5.71}
    ]},
    {"smiles": "CC(C)[C@@H]1CC[C@@H](C)C[C@H]1O", "values": [
      {"measurement": "suppression of toxicity", "setting": "[1]", "value": 4.29},
      {"measurement": "suppression of toxicity", "setting": "PubChem AID 1597", "value": 7.86}
    ]},
    {"smiles": "C[N+](C)(C)CCCCCC[N+](C)(C)C", "values": [
      {"measurement": "suppression of toxicity", "setting": "[1]", "value": 2.86},
      {"measurement": "suppression of toxicity", "setting": "PubChem AID 1597", "value": 2.86}
    ]},
    {"smiles": "C#C[C@]1(O)CCC2C3CCC4=CC(=O)CC[C@@H]4C3CC[C@@]21CC", "note": "(some centres not stated)", "values": [
      {"measurement": "suppression of toxicity", "setting": "[1]", "value": 0},
      {"measurement": "suppression of toxicity", "setting": "PubChem AID 1597", "value": 7.14}
    ]},
    {"smiles": "Oc1c(Br)cc(Br)c2cccnc12", "values": [
      {"measurement": "suppression of toxicity", "setting": "[1]", "value": 1.43},
      {"measurement": "suppression of toxicity", "setting": "PubChem AID 1597", "value": 6.42}
    ]},
    {"smiles": "CC(=O)N[C@@H](CCC(=O)O)C(=O)O", "values": [
      {"measurement": "suppression of toxicity", "setting": "[1]", "value": 1.43},
      {"measurement": "suppression of toxicity", "setting": "PubChem AID 1597", "value": 5.71}
    ]},
    {"smiles": "CC(=O)N[C@@H]1[C@@H](O)[C@H](O)[C@@H](CO)O[C@H]1O", "values": [
      {"measurement": "suppression of toxicity", "setting": "[1]", "value": 5.71},
      {"measurement": "suppression of toxicity", "setting": "PubChem AID 1597", "value": 4.29}
    ]},
    {"smiles": "OCCN(CCO)c1nc(N2CCCCC2)c2nc(N(CCO)CCO)nc(N3CCCCC3)c2n1", "values": [
      {"measurement": "suppression of toxicity", "setting": "[1]", "value": 4.29},
      {"measurement": "suppression of toxicity", "setting": "PubChem AID 1597", "value": 7.86}
    ]},
    {"smiles": "CC(C(=O)O)c1ccc(-c2ccccc2)c(F)c1", "note": "(configuration not stated)", "values": [
      {"measurement": "suppression of toxicity", "setting": "[1]", "value": 1.43},
      {"measurement": "suppression of toxicity", "setting": "PubChem AID 1597", "value": 6.43}
    ]},
    {"smiles": "CC(=O)CCCCn1c(=O)c2c(ncn2C)n(C)c1=O", "values": [
      {"measurement": "suppression of toxicity", "setting": "[1]", "value": 1.43},
      {"measurement": "suppression of toxicity", "setting": "PubChem AID 1597", "value": 19.3}
    ]},
    {"smiles": "CN(C)CCC=C1c2ccccc2C=Cc2ccccc21", "values": [
      {"measurement": "suppression of toxicity", "setting": "[1]", "value": 15.7},
      {"measurement": "suppression of toxicity", "setting": "PubChem AID 1597", "value": 20.7}
    ]},
    {"smiles": "CC[C@H](C)C(=O)O[C@H]1C[C@@H](C)C=C2C=C[C@H](C)[C@H](CC[C@@H]3C[C@@H](O)CC(=O)O3)[C@H]21", "values": [
      {"measurement": "suppression of toxicity", "setting": "[1]", "value": 0},
      {"measurement": "suppression of toxicity", "setting": "PubChem AID 1597", "value": 0.715}
    ]},
    {"smiles": "Cc1cccc(Nc2ccccc2C(=O)O)c1C", "values": [
      {"measurement": "suppression of toxicity", "setting": "[1]", "value": 8.57},
      {"measurement": "suppression of toxicity", "setting": "PubChem AID 1597", "value": 5.71}
    ]},
    {"smiles": "CC(=O)NC(Cc1ccccc1)C(=O)O", "note": "(configuration not stated)", "values": [
      {"measurement": "suppression of toxicity", "setting": "[1]", "value": 5.71},
      {"measurement": "suppression of toxicity", "setting": "PubChem AID 1597", "value": 0.715}
    ]}
  ]
}
